Experimental data: PubChem BioAssay AID743121 (NCATS, 2013)
Purpose: 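Knock-downs that sensitise breast cancer cells to camptothecin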 (primary screen). Cell system: MDA-MB-231 cells, a human breast cancer line. Reagents: single siRNA against human genes, 20 nM siRNA (0.8 pmol per well). Timing: 120 h (drug added 48 h after transfection, read 72 h later). Challenge: camptothecin 20 nM (about EC30) for 72 h; vehicle 0.1% DMSO in parallel plates. Read-out: 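CellTiter-Glo ATP signal, scaled to control siRNA as percent viability; sensitisation given as log2 of untreated divided by camptothecin-treated viability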. Scale: log2 vehicle/camptothecin viability: higher = stronger sensitisation to camptothecin. Rule for the call: 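Each gene scored by redundant siRNA activity (RSA) over its individual siRNA ratios; a gene is called active at p < 0.001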.
In all, the deposit lists about 26,000 reagents; shown is a part drawn at random. 167 of them (0.63%) count as active. 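Calls are per gene from RSA p-values that are not deposited; an individual active-marked siRNA can sensitise only weakly.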 Reagents against one gene are numbered here. Not all columns of the deposit are shown.

| target | reagent | log2 vehicle/camptothecin viability | call |
| --- | --- | --- | --- |
| RDH10 | 1 | 0.0397 | inactive |
| RDH10 | 2 | -0.241 | inactive |
| RDH10 | 3 | -0.0837 | inactive |
| RDH10 | 4 | -0.0633 | inactive |
| GRIA2 | 1 | 0.337 | inactive |
| GRIA2 | 2 | 0.000328 | inactive |
| GRIA2 | 3 | 0.293 | inactive |
| GRIA2 | 4 | -0.068 | inactive |
| PITPNM2 | 1 | -0.218 | inactive |
| PITPNM2 | 2 | 0.32 | inactive |
| PITPNM2 | 3 | -0.0271 | inactive |
| PITPNM2 | 4 | 0.017 | inactive |
| BIRC7 | 1 | 0.183 | inactive |
| BIRC7 | 2 | -0.799 | inactive |
| BIRC7 | 3 | -0.388 | inactive |
| BIRC7 | 4 | -0.409 | inactive |
| KMO | 1 | -0.0479 | inactive |
| KMO | 2 | 0.0608 | inactive |
| KMO | 3 | -0.641 | inactive |
| KMO | 4 | -0.127 | inactive |
| SERPINA3 | 1 | -0.241 | inactive |
| SERPINA3 | 2 | 0.0192 | inactive |
| SERPINA3 | 3 | 0.0101 | inactive |
| MCOLN1 | 1 | -0.173 | inactive |
| MCOLN1 | 2 | 0.139 | inactive |
| MCOLN1 | 3 | -0.148 | inactive |
| MCOLN1 | 4 | -0.101 | inactive |
| C8A | 1 | -0.345 | inactive |
| C8A | 2 | -0.00648 | inactive |
| C8A | 3 | 0.038 | inactive |
| C8A | 4 | 0.368 | inactive |
| TGM1 | 1 | 0.365 | inactive |
| TGM1 | 2 | -0.0356 | inactive |
| TGM1 | 3 | -0.346 | inactive |
| TGM1 | 4 | -0.0958 | inactive |
| NCR3 | 1 | -0.366 | inactive |
| NCR3 | 2 | -0.447 | inactive |
| NCR3 | 3 | 0.507 | inactive |
| NCR3 | 4 | -0.354 | inactive |
| CKM | 1 | 0.545 | inactive |
| CKM | 2 | -0.328 | inactive |
| CKM | 3 | -0.15 | inactive |
| CKM | 4 | -0.343 | inactive |
| TRPV2 | 1 | 0.144 | inactive |
| TRPV2 | 2 | -0.38 | inactive |
| TRPV2 | 3 | 0.0364 | inactive |
| TRPV2 | 4 | -0.198 | inactive |
| RP2 | 1 | -0.222 | inactive |
| RP2 | 2 | 0.256 | inactive |
| RP2 | 3 | -0.0135 | inactive |
| RAB40B | 1 | -0.436 | inactive |
| RAB40B | 2 | 0.0352 | inactive |
| RAB40B | 3 | -0.141 | inactive |
| RAB40B | 4 | -0.478 | inactive |
| GUSB | 1 | -0.0684 | inactive |
| GUSB | 2 | 0.405 | inactive |
| GUSB | 3 | -0.116 | inactive |
| GUSB | 4 | 0.85 | inactive |
| GTF2IRD1 | 1 | -0.297 | inactive |
| GTF2IRD1 | 2 | -0.249 | inactive |
| GTF2IRD1 | 3 | 0.00877 | inactive |
| GTF2IRD1 | 4 | -0.228 | inactive |
| SLC7A5P1 | 1 | -0.466 | inactive |
| SLC7A5P1 | 2 | -0.14 | inactive |
| SLC7A5P1 | 3 | 0.411 | inactive |
| SEC62 | 1 | -0.259 | inactive |
| SEC62 | 2 | 0.373 | inactive |
| SEC62 | 3 | -0.0949 | inactive |
